The campaign covered roughly 31,000 sequences. About 1,400 (4.5%) were called active.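 How the source made its calls: active means median seed-adjusted z-score above 1 or below -1; inactive means the rest.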 The list shows a part of the results.

The nature of this test: Novel Modifiers of Survival Motor Neuron (SMN) Protein: Gene Identification via Genome-wide siRNA Screen.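 Further: luminescence tracks full-length SMN protein made from the SMN2 reporter.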 As to conditions: HEK293T SMN2-luciferase reporter, siRNA knockdown, 72 h; actives lie on both sides. In short, it runs like this: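 Genome-wide siRNA screen (10418 genes, 3 siRNAs each, 1 pmol per well) by reverse transfection in HEK293T cells stably carrying an SMN2-luciferase reporter; luminescence after 72 hours, normalized to negative-control siRNA, log10-transformed, MAD-scored.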
Consider GGCUAAUCCUUUUCGAAUATT against DGKE, for which the median seed-adjusted z-score was inactive: -0.0589.

As for GGAAGUGAACUUUACAUCUTT against TPX2, the median seed-adjusted z-score is inactive: -0.564.

Consider GCGACUCGGUAGUCCAUUATT against EGR3, for which the median seed-adjusted z-score was inactive: -0.232.

As to GGUUAAUAGGUCAAAUUGUTT against TUBA1A, the median seed-adjusted z-score is inactive: 0.284.

With GGGUGAAAAAGAUCCGUGATT against PLCG1, the median seed-adjusted z-score was inactive: -0.336.

With GAAUUGACUUCUUGUCUAATT against RAB41, the median seed-adjusted z-score was inactive: -0.534.

As to GGAUCCUCGAUACAGCACATT against MIOX, the median seed-adjusted z-score was inactive: 0.14.

Regarding GUAUGGACCUCAUUCCGUUTT against LMLN, the median seed-adjusted z-score is inactive: 0.

CCAUGUCACCGGCAAGUGUTT against SCARF2: the median seed-adjusted z-score was inactive: 0.

Consider CACCGACAAUAUAAAGGAATT against SLC25A32, for which the median seed-adjusted z-score is inactive: -0.299.

With GGGUCACAACCAAAUCAAATT against ZYX, the median seed-adjusted z-score is inactive: 0.273.

In the case of CGCUGUCCAGAAAAACGGATT against DMRT3, the median seed-adjusted z-score is inactive: 0.

For the sequence CGACCCAAAUUUGACAUGATT against ILK, the median seed-adjusted z-score was inactive: -0.231.

As for CAGUUACUCUAACGUAUAATT against SI, the median seed-adjusted z-score is inactive: 0.

Turning to GGACCUAUCUAGGACAUCUTT against GPR64, the median seed-adjusted z-score is inactive: 0.527.

Turning to GGAAAUGACAAAUCUAACATT against AVIL, the median seed-adjusted z-score was inactive: -0.127.

As for GAAGGUUCAUGAAUCUCAATT against ZIC3, the median seed-adjusted z-score was inactive: -0.183.

Consider GGUUAGAAGUCAUUGUAUATT against NEUROG2, for which the median seed-adjusted z-score is inactive: -0.366.

Consider CCAUUUGACCAACCAAUGATT against PCTK2, for which the median seed-adjusted z-score was inactive: -0.497.

Take CAGCUAGCUUGAAUGCUAATT against RNF130: the median seed-adjusted z-score was inactive: -0.21.

As for CUAUCGGAUCCAAACCUAUTT against PARN, the median seed-adjusted z-score was inactive: -0.0061.

Regarding AGGACAUCUUCGUACAUGUTT against CSDC2, the median seed-adjusted z-score is inactive: -0.321.

As for AUGCCAAGCUGGCCUCAGATT against KRT33A, the median seed-adjusted z-score is inactive: -0.107.

For UGAGAAUAGUUACAGCAAATT against NRCAM, the median seed-adjusted z-score is inactive: -0.0304.

As for GCCUUAUGUUGAUAUACUUTT against ADK, the median seed-adjusted z-score is inactive: 0.198.

For the sequence GAACACUCUAUGUCUAAUATT against MYNN, the median seed-adjusted z-score was inactive: 0.0702.

With GGCCUUUGUUCGCAGCUAUTT against ZNF404, the median seed-adjusted z-score is inactive: 0.574.

With GGACUUUGCUGCUGAGGUUTT against YARS, the median seed-adjusted z-score was inactive: 0.0197.

Regarding CGGCUAUUUGCAAAGCAGATT against SRD5A1, the median seed-adjusted z-score is inactive: 0.0945.

In the case of GGACGAUGUCUACAGCCUATT against SIN3B, the median seed-adjusted z-score is inactive: 0.509.

With CCUAAUACAUGCGAAGUGATT against HS3ST5, the median seed-adjusted z-score is inactive: -0.725.

For the sequence GCAGUCCCAUGAUCACCAUTT against BEST1, the median seed-adjusted z-score was inactive: -0.322.

In the case of GCUGCUCUACGAAGACAUUTT against GPR175, the median seed-adjusted z-score was inactive: 0.245.

GAGUCACAAUCGCAUGAAATT against FKBP9: the median seed-adjusted z-score is inactive: 0.359.

As to GGAAUAACCUCUUGCAGCATT against HAS1, the median seed-adjusted z-score is inactive: -0.416.

For CGUAUAGUCAAAGCUCAAATT against ZNF24, the median seed-adjusted z-score is inactive: 0.388.

As to GCAUAGACUUGAAGGUACATT against SPINT1, the median seed-adjusted z-score is inactive: 0.0172.

With GGACAGCAAAGACCGCGUATT against BAHCC1, the median seed-adjusted z-score is inactive: 0.

Regarding AGUGUCUACUGUGAGAAUATT against TRAF4, the median seed-adjusted z-score is active: -1.16.

For GAGUUCUGCCCGUUCCACATT against GNPTG, the median seed-adjusted z-score is inactive: -0.401.

Regarding GGACUUUCUGGAUAUCAAUTT against ATP6V1B1, the median seed-adjusted z-score was inactive: 0.38.

Turning to CUCCAAGGCCGACUCCUAATT against B3GAT1, the median seed-adjusted z-score was inactive: 0.503.

On to GGACUCUUGUUAACAGUAATT against S100B, for which the median seed-adjusted z-score is inactive: 0.862.

Take GGGUACACGUGAGAACUCATT against ZNF177: the median seed-adjusted z-score was inactive: 0.363.

On to GGGCAUUUGGUGAAGAUCATT against MYLK2, for which the median seed-adjusted z-score was inactive: -0.0498.

Regarding CACGCUCCAUCGCUCAGUATT against VTN, the median seed-adjusted z-score was inactive: -0.435.

For GGCUGAUGUAAUCUCUAAATT against SLC9A8, the median seed-adjusted z-score was inactive: 0.367.

GGCUACAAAUGUUCAUCGATT against LRP6: the median seed-adjusted z-score was inactive: -0.116.

As to CACUAAGAGAAAAUCUGAATT against GALNT13, the median seed-adjusted z-score is inactive: -0.0149.

As for CUGUUUACAUGACCUAUUUTT against MAFG, the median seed-adjusted z-score is inactive: 0.

On to GCAUGUUGAUUCUCGGCGATT against TDRD9, for which the median seed-adjusted z-score is inactive: 0.0754.

CAACAAGUGUCUAAAUGUUTT against GNG11: the median seed-adjusted z-score was inactive: 0.00609.

In the case of GAAUCUCUAUACAAAUGAATT against CSNK1G2, the median seed-adjusted z-score was inactive: 0.511.

For the sequence GGACAGCUAUGACUCGGAUTT against DOC2A, the median seed-adjusted z-score is inactive: 0.299.

Turning to AGAGAGAUUACGAACUGAATT against FLOT1, the median seed-adjusted z-score was inactive: -0.685.

For CAGUAAGUCUAAUCUCAUUTT against ZNF671, the median seed-adjusted z-score was inactive: -0.0551.

CUAUGUUCGAUUUAUUGAATT against ADSS: the median seed-adjusted z-score is inactive: -0.272.

CAACAAGAUUUCUACGUUATT against PKD1: the median seed-adjusted z-score is inactive: -0.228.

On to GUAUAUUUUGGGAAUCUUUTT against CEBPB, for which the median seed-adjusted z-score is inactive: -0.748.

As for CAAGAGUACAAAUUCAAGATT against PRPSAP2, the median seed-adjusted z-score is inactive: 0.329.

As for GUUUCUACCCGGCUACGUATT against DHCR7, the median seed-adjusted z-score is inactive: 0.00451.

Regarding GUCUCUAUCUACAAUAUCATT against PCDHGA8, the median seed-adjusted z-score is inactive: 0.00691.

Take CCUUGACCUAUGACAUACATT against GRIK3: the median seed-adjusted z-score was inactive: 0.128.

In the case of GCCUCUCAGAGAACUACGATT against LRRC33, the median seed-adjusted z-score was inactive: -0.194.

On to CGAAUCCUACAUCCACCAATT against PRKCDBP, for which the median seed-adjusted z-score is inactive: 0.244.

As to GCUGAUACCUUCUACCGUATT against GDPD2, the median seed-adjusted z-score is inactive: -0.0868.

In the case of GUCUAACCGGUCUCAAUAATT against PGAM1, the median seed-adjusted z-score was inactive: -0.234.

As for CAUCAUUACGAUUAGCCUATT against ARFGAP3, the median seed-adjusted z-score was inactive: 0.00412.

Turning to UCAUCAAGCUUGCAGAGCATT against CTRC, the median seed-adjusted z-score was inactive: -0.104.

As to CUCACUUACUCGUACACGATT against IL1R2, the median seed-adjusted z-score was inactive: 0.429.

In the case of UCAUGGGCAUAUUCUCUAATT against FGD3, the median seed-adjusted z-score was inactive: 0.245.

For GACAUACAGUGAUUUGUCATT against ZIM2, the median seed-adjusted z-score was inactive: -0.565.

Turning to CCCUGAACAAGAUCUCCAATT against GPR109B, the median seed-adjusted z-score was inactive: 0.321.

GGAAGAACUUUAUAACCGATT against NPEPPS: the median seed-adjusted z-score was inactive: 0.

Regarding GCUCACCACCUGUAACAUUTT against SLC18A3, the median seed-adjusted z-score is inactive: -0.392.

Turning to GGUCUAUUGGGAUAAUGGATT against PGM2, the median seed-adjusted z-score is inactive: 0.355.

As for GCAGAAAAGCUGUCCGAUUTT against ZNF516, the median seed-adjusted z-score was inactive: 0.56.

Turning to UGAUGACACCAACCACGAATT against CNP, the median seed-adjusted z-score was inactive: -0.116.

As to AGGCAGAAUUCACCAGUGATT against SIRPB2, the median seed-adjusted z-score was inactive: 0.

For GGGCAAAUGUUGUUUACUATT against PON2, the median seed-adjusted z-score is inactive: 0.

In the case of UCACCACUGUGGAUCUGAATT against CLIC5, the median seed-adjusted z-score is inactive: 0.

In the case of AGACAGAGGUCGACAUUUATT against MGLL, the median seed-adjusted z-score is inactive: 0.288.

On to GCGGAGUUGGGUACAGAGATT against ZNF212, for which the median seed-adjusted z-score was inactive: 0.863.

Consider GGACGUGACCUCAAACUUUTT against CBX8, for which the median seed-adjusted z-score was inactive: -0.207.

Take CGUACACUCUCUCCAGGCATT against PGLYRP1: the median seed-adjusted z-score is inactive: -0.559.

Regarding AGUGGACAACAGAACAAUATT against SNRPG, the median seed-adjusted z-score is active: -3.09.

For GGUCUUCCAUAAUAUGUCATT against ZNF83, the median seed-adjusted z-score was inactive: 0.118.

With CCCUGGAACUAAUCAGACATT against TTC8, the median seed-adjusted z-score was inactive: 0.

AGAACUUCAGUGCGCCUUATT against HOXA1: the median seed-adjusted z-score was inactive: 0.

Regarding GAGUCAAAGUUUGAUGUCATT against UGT2B15, the median seed-adjusted z-score was inactive: 0.421.

In the case of CCCAAUGCCUGUUUAUUCATT against POLR2J3, the median seed-adjusted z-score is active: -5.42.

Regarding GGGAGGACCUGAACAAGAATT against TAOK2, the median seed-adjusted z-score was inactive: 0.28.

For the sequence GCGUGGAGUUUAUGCAGAUTT against SCGN, the median seed-adjusted z-score is inactive: -0.0164.

Turning to UGACAUACCAGGAAAGAUATT against LPCAT3, the median seed-adjusted z-score is inactive: -0.388.

For the sequence GUAUCGGGCUAAUCGAGAATT against E2F4, the median seed-adjusted z-score was inactive: -0.395.

As to GAGAGAAUAUACUACAAUUTT against PRKRA, the median seed-adjusted z-score was inactive: 0.00259.

For the sequence GCAAUGAGGGCUUCACCUATT against ALDH3B2, the median seed-adjusted z-score was inactive: 0.171.

Consider CAGAUAUGAUUGGUGUAAATT against CABP1, for which the median seed-adjusted z-score is inactive: -0.192.

On to CAUUCGCAUUCAGUCCAUATT against FRAP1, for which the median seed-adjusted z-score is active: -1.02.

AGCCUGUGAUGACUACAGATT against MGP: the median seed-adjusted z-score was inactive: -0.0854.

For the sequence GCAUCUCCGUGUACAUGUUTT against P2RY1, the median seed-adjusted z-score was inactive: -0.844.

Turning to GUGUCUUCGUCAAAUUACATT against ST13, the median seed-adjusted z-score was inactive: 0.286.

For the sequence GCCGAGAAGCGACCAUUCATT against SOX3, the median seed-adjusted z-score was inactive: 0.32.

With GGCUCAUGUUUACAGCUUUTT against NFKB1, the median seed-adjusted z-score is inactive: 0.31.

As for ACAGAGAUAUUCCCACGGATT against ZNF282, the median seed-adjusted z-score is inactive: 0.274.

Consider GAAUCGCCUUCAUCAGUCATT against ARID4B, for which the median seed-adjusted z-score was inactive: 0.211.

Regarding GAAGCACGGUGACAUCUUUTT against PTGIS, the median seed-adjusted z-score was inactive: 0.

For GAAGGAUGUUGAGAACGAUTT against PPP2R3A, the median seed-adjusted z-score is inactive: 0.175.

The values above are taken from PubChem BioAssay AID1347426 (Functional Genomics Laboratory (NCATS/FGL), 2020).
